{"source": "paper PMC8253596", "binders": {"B1": {"name": "N. cincticeps Rab5, prey fusion from pGADT7-Rab5 (protein, UniProt A0A8F5HV83 1-214)", "chain": "MANRGGAQRPNGTPQGKICQFKLVLLGESAVGKSSLVLRFVKGQFHEYQESTIGAAFLTQTVCLDDMTVKFEIWDTAGQERYHSLAPMYYRGAQAAIVVYDITNPDTFGRAKTWVKELQRQASPNIVIALAGNKADLANKRSVEFDEAQAYAHENGLLFMETSAKTAMNVNDIFLAIAKKLPKNEQAGGGGSSGQGRRLVESEATTKAPGSCCK"}}, "molecular_target": "RDV major outer capsid protein P8, bait fusion from pGBKT7-P8 (Rice dwarf virus)", "experiment": "two-hybrid; Matchmaker Gold Yeast Two-hybrid system; prey in pGADT7, bait in pGBKT7, co-transformed into yeast AH109; growth and colour on SD/-Ade-His-Leu-Trp/X-alpha-Gal", "note": "Results are given in words; binding and its absence hold for the method and conditions named. Tags and fused reporters may be left off the sequences shown."}
{"binder": "B1", "values": [{"measurement": "binding", "value": "no binding"}]}
